Experimental data reported in PubChem BioAssay AID1439 (NMMLSC, 2008).
Out of some 220,000 compounds screened, about 770 (0.35%) were called active. This list was built around the results that the source calls inconclusive (neither active nor inactive); the mix of calls is not that of the screen. No stated cut-off is given here; in the data, active means binding response below about 49% or above about 150%; inconclusive means no clear call, values can overlap the other calls; inactive means in between.

Protein sequences, listed by entry. Tags and fused reporters are not part of them.
UniProt P09471, whole entry, looked up: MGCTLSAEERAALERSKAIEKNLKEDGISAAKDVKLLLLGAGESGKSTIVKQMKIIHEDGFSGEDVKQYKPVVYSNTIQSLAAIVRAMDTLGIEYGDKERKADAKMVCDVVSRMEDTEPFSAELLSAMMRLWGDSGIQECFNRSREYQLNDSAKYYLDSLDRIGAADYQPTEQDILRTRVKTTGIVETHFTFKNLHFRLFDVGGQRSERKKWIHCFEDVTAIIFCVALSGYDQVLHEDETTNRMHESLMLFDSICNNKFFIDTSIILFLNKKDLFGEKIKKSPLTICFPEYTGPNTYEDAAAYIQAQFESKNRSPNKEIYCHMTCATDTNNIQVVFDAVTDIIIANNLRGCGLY

What follows are molecules tested against Guanine nucleotide-binding protein G(o) subunit alpha (Homo sapiens) (UniProt P09471) (assay: RGS7-Galphao binding modulators, primary screen, biochemical, multiplexed bead flow cytometry (AID 1439;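 further: fluorescent Galphao held in activated GDP-AlF4 state binding bead-coupled RGS7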)). Conditions: at 10 µM, actives lie on both sides.
With `O=C(CSc1ncc(S(=O)(=O)c2ccccc2)c(=O)[nH]1)Nc1ccccc1Cl` the binding response (% of control) was inconclusive: 106%.
For `Cc1cc(C(C)(C)C)cc(C)c1C(=O)O`, the binding response (% of control) was inconclusive: 82.8%.
`Oc1ccccc1/C=N/N1CCN(c2ccccn2)CC1` was tested, and the binding response (% of control) was inconclusive: 131%.
`CC(=O)Nc1ccccc1-c1nc2ccc(C(=O)N3CCN(c4cc(C)ccc4C)CC3)cc2[nH]c1=O` was tested, and the binding response (% of control) was active: 168% [activator].
In the case of `Cc1oc2c(CN3CCOCC3)c(O)ccc2c(=O)c1-c1ccc(Cl)cc1`, the binding response (% of control) is reported as inconclusive: -58.1%.
In the case of `COc1ccc(OC)c(/C=C/C(=O)NCCc2nc3ccccc3[nH]2)c1`, the binding response (% of control) is reported as inconclusive: 102%.
With `O=C(NC1CCCC1)c1cc(COc2ccc3ncccc3c2)on1` the binding response (% of control) was inconclusive: 37.1%.
In the case of `CCc1nc2ccccc2nc1N1CCN(S(=O)(=O)c2c(C)cc(Cl)cc2C)CC1`, the binding response (% of control) is reported as inconclusive: 108%.
With `CN(C)C(CNc1ccc([N+](=O)[O-])cc1C#N)c1ccccc1` (stereo unspecified) the binding response (% of control) was inactive: 108%.
In the case of `CCC(C)c1ccc(C2C3=C(Nc4nc(N)[nH]c(=O)c42)c2ccccc2C3=O)cc1` (stereo unspecified), the binding response (% of control) is reported as inconclusive: 113%.
With `O=C(CSc1nnc(Cc2ccccc2)o1)N1CCCC1` the binding response (% of control) was inconclusive: 78.1%.
In the case of `COc1cc([N+](=O)[O-])ccc1-c1ccc(/C=N/NC(N)=O)o1`, the binding response (% of control) is reported as inconclusive: 113%.
`O=C(Nc1ccccc1)N(c1ccccc1)C1C=CS(=O)(=O)C1` (stereo unspecified) was tested, and the binding response (% of control) was inconclusive: 139%.
With `O=C(NNC(=O)C12CC3CC(CC(C3)C1)C2)c1ccccn1` the binding response (% of control) was inconclusive: 367%.
With `O=S(=O)(c1ccc(F)cc1)c1snnc1-c1ccccc1` the binding response (% of control) was inconclusive: 110%.
`Cc1c(NS(C)(=O)=O)c(=O)n(-c2ccccc2)n1C` was tested, and the binding response (% of control) was inactive: 101%.
For `Cc1nc(-c2ccc(S(=O)(=O)Nc3cc(S(=O)(=O)N(C)C)ccc3C)s2)cs1`, the binding response (% of control) was inconclusive: 119%.
For `COc1ccc(-n2c(C)c(C(=O)O)c3cc(OC)c4ccccc4c32)cc1`, the binding response (% of control) was inconclusive: 52.6%.
With `O=C(NCC1CCCO1)C1CCC(CNS(=O)(=O)c2ccccc2)CC1` (stereo unspecified) the binding response (% of control) was inactive: 98.8%.
`Cc1nc2ccc(NC(=S)NC3CCCCC3)cc2nc1C` was tested, and the binding response (% of control) was inactive: 105%.
In the case of `CC(C)c1cccc(C(C)C)c1NC(=S)Nc1cccc(Cl)c1`, the binding response (% of control) is reported as inconclusive: 96.9%.
`Cc1ccc(C(=O)N/C(=C\c2ccc(-c3ccc(Cl)cc3)o2)C(=O)NCCCN(C)C)cc1` was tested, and the binding response (% of control) was inconclusive: 110%.
With `COc1ccc(N(CC(=O)NCCC2=CCCCC2)S(=O)(=O)c2ccc(C)cc2)cc1` the binding response (% of control) was inconclusive: 108%.
`COC(=O)c1cn(Cc2ccc(C(F)(F)F)cc2)cc(F)c1=O` was tested, and the binding response (% of control) was inconclusive: 88.9%.
With `O=C(CCN1C(=O)/C(=C/c2cccs2)SC1=S)NC1=NCCS1` the binding response (% of control) was inactive: 94.8%.
For `CCO/C=C1\SC(=S)N(c2ccc(Cl)cc2)C1=O`, the binding response (% of control) was inconclusive: 113%.
In the case of `COc1ccccc1OCC#CCn1ccnc1`, the binding response (% of control) is reported as inconclusive: 116%.
`COc1ccc(Nc2nc(-c3cccs3)nc3ccccc23)cc1` was tested, and the binding response (% of control) was inactive: 101%.
With `N=c1c2c3c(sc2ncn1N)CCC3` the binding response (% of control) was inconclusive: -20.7%.
For `C[C@H]1CC[C@]2(O[C@H](CCO)C[C@@H](O)[C@@H]2O)O1`, the binding response (% of control) was inconclusive: 99.4%.
For `NS(=O)(=O)c1ccc(NC(=O)c2ccc(S(=O)(=O)N3CCOCC3)o2)cc1`, the binding response (% of control) was inconclusive: 96.7%.
`CC1=CS(=O)(=O)CC1SC(=S)N(C)C1CCS(=O)(=O)C1` (stereo unspecified) was tested, and the binding response (% of control) was inactive: 103%.
`O=c1nccc(Nc2ccccc2)[nH]1` was tested, and the binding response (% of control) was inconclusive: 55.1%.
With `COc1ccc(N(CC(=O)NCc2ccncc2)S(=O)(=O)c2ccc(C)c([N+](=O)[O-])c2)cc1` the binding response (% of control) was inconclusive: 107%.
With `O=C(CN1CCN(Cc2ccccc2)CC1)N/N=C/c1cccnc1` the binding response (% of control) was inconclusive: 101%.
`O=C(Nc1ccccc1)N1CCN(c2nc(-c3ccccc3)ns2)CC1` was tested, and the binding response (% of control) was inconclusive: 117%.
For `COc1ccc(CN2C(=O)CS/C2=N/N=C/c2ccccc2)cc1`, the binding response (% of control) was inconclusive: -20.6%.
In the case of `Nc1nc(N)c(N=Nc2ccc(S(N)(=O)=O)cc2)c(=O)[nH]1`, the binding response (% of control) is reported as inconclusive: 107%.
For `COc1ccc(-c2ccc(N(C)C)cc2)cc1[C@H]1[C@@H]2C=CCC[C@@]2(C)C(=O)N1Cc1ccccc1`, the binding response (% of control) was inconclusive: 121%.
In the case of `O=c1c2cc(NC(=S)NCc3ccccn3)ccc2nc2n1CCCCC2`, the binding response (% of control) is reported as inconclusive: 100%.
For `CN1CCN(C(=S)Nc2ccc(S(N)(=O)=O)cc2)CC1`, the binding response (% of control) was inconclusive: 120%.
With `COCCCNc1nc2nonc2nc1N1CCN2CCCC2C1` (stereo unspecified) the binding response (% of control) was inconclusive: 65%.
For `Cc1ccc(-c2nn[nH]n2)cc1Cl`, the binding response (% of control) was inconclusive: 112%.
With `Cc1ccc2nc(-c3ccncc3)cc(C(=O)NCCc3ccc(F)cc3)c2c1` the binding response (% of control) was inconclusive: 114%.
In the case of `O=C(NCc1ccccc1)c1ncn[nH]1`, the binding response (% of control) is reported as inconclusive: 124%.
For `O=[N+]([O-])c1ccccc1/C=C/C=N/n1c(-c2ccccc2)n[nH]c1=S`, the binding response (% of control) was inactive: 101%.
In the case of `COCCNC(=O)/C(C#N)=C/c1ccc(-c2ccc(S(=O)(=O)N3CCOCC3)cc2)o1`, the binding response (% of control) is reported as inactive: 84.1%.
In the case of `Nc1ccc(C(=O)O)cc1[N+](=O)[O-]`, the binding response (% of control) is reported as inconclusive: 98.3%.
For `Cc1cc(C(=O)NNC(=O)NC(C)C)no1`, the binding response (% of control) was inconclusive: 114%.
`CN/N=C(\Cc1nc2ccccc2[nH]1)c1ccc([N+](=O)[O-])cc1` was tested, and the binding response (% of control) was inconclusive: 114%.
With `CCC/C(=N\NC(=O)c1ccc(OC)c(OC)c1)c1ccccc1` the binding response (% of control) was inconclusive: 103%.
`CN(C)C(CNC(=O)c1ccc2c(=O)n(-c3ccccc3F)c(=S)[nH]c2c1)Cc1ccccc1` (stereo unspecified) was tested, and the binding response (% of control) was inconclusive: 115%.
With `COc1ccc(NC(=O)C(C)NS(=O)(=O)c2ccc(NC(C)=O)cc2)cc1Cl` (stereo unspecified) the binding response (% of control) was inactive: 95.9%.
For `O=C(N/N=C/c1c(F)c(F)c(F)c(F)c1F)c1cccc(S(=O)(=O)N2CCOCC2)c1`, the binding response (% of control) was inconclusive: 73.2%.
In the case of `O=C(O)CCNS(=O)(=O)c1ccccc1Br`, the binding response (% of control) is reported as inactive: 104%.
With `O=C(CSc1n[nH]c(=O)n1-c1cccnc1)N1CCOCC1` the binding response (% of control) was inconclusive: 140%.
In the case of `CCOC(=O)C(C)n1nc(-c2ccccc2)c2ccccc2c1=O` (stereo unspecified), the binding response (% of control) is reported as inconclusive: 106%.
`COc1cc([N+](=O)[O-])cc2sc(NC(=O)C(C)(C)C)nc12` was tested, and the binding response (% of control) was inconclusive: 148%.
In the case of `C=C(C)CNC(=S)N/N=C/c1ccc(NC(C)=O)cc1`, the binding response (% of control) is reported as inconclusive: 89.7%.
For `CCOC(=O)CCCCC(=O)c1[nH]c(=O)[nH]c1CSc1nnc2c3cc(Br)ccc3n(C)c2n1`, the binding response (% of control) was inconclusive: 91.5%.
`C1CN(c2nc3nonc3nc2N2CCSCC2)CCO1` was tested, and the binding response (% of control) was inconclusive: 49.8%.
With `Cc1cccc(OCc2nc(C#N)c(N3CCCC3)o2)c1` the binding response (% of control) was inconclusive: 75.9%.
`O=C(/C=C/c1ccc([N+](=O)[O-])cc1)NCCSc1ccccc1` was tested, and the binding response (% of control) was inactive: 107%.
With `O=c1cc[nH]c2c(Cl)cccc12` the binding response (% of control) was inconclusive: 89.9%.
In the case of `O=C(CSc1nnc(COc2ccccc2)o1)N1CCOCC1`, the binding response (% of control) is reported as inconclusive: 101%.
In the case of `Cc1cc([N+](=O)[O-])ccc1NC(=O)Nc1ccccc1F`, the binding response (% of control) is reported as inconclusive: 106%.
For `Cc1onc(-c2c(Cl)cccc2Cl)c1/C(N)=N/OC(=O)C1CC1`, the binding response (% of control) was inconclusive: 127%.
With `CCOC(=O)c1cc(-c2csc(COc3ccccc3Cl)n2)on1` the binding response (% of control) was inconclusive: -53.8%.
In the case of `COC(=O)c1cc2c(N)c(C(=O)c3ccc(Cl)cc3)sc2nc1C(OC)OC`, the binding response (% of control) is reported as inconclusive: 121%.
In the case of `COc1ccccc1NS(=O)(=O)c1cc(NC(=O)c2ccco2)ccc1N1CCOCC1`, the binding response (% of control) is reported as inconclusive: 76.1%.
`C=CCN1C(=O)/C(=C/C=C2/N(CC)c3ccc(S(=O)(=O)N(C)C)cc3N2CC)SC1=S` was tested, and the binding response (% of control) was inconclusive: 149%.
With `Cc1ccsc1/C=N/n1cnnc1` the binding response (% of control) was inconclusive: 108%.
In the case of `COc1cc(/C=N/Nc2nncn2N)ccc1OCc1c(C)no[n+]1[O-]`, the binding response (% of control) is reported as inconclusive: 144%.
`N#Cc1cnn2c3c(cnc12)C(=O)N1CCc2ccccc2C1C3` (stereo unspecified) was tested, and the binding response (% of control) was inactive: 100%.
In the case of `COc1ccc(C(=O)N/C(=C/c2cccs2)C(=O)NN)cc1OC`, the binding response (% of control) is reported as inconclusive: 108%.
In the case of `N#Cc1ccc(Cn2ccnc2C(=O)Nc2ccccc2)cc1`, the binding response (% of control) is reported as inconclusive: 68.8%.
With `O=C1C(Cl)=C(N2CCCCC2)C(=O)C(Cl)=C1c1cnc(N2CCCCC2)s1` the binding response (% of control) was active: 42.8%.
`O=S(=O)(NCc1ccccc1)c1ccccc1Br` was tested, and the binding response (% of control) was inconclusive: 113%.
`O=C(CSc1nncs1)NCCCc1ccccc1` was tested, and the binding response (% of control) was inactive: 102%.
For `Cc1cccc(C)c1-n1c(=O)n(Cc2ccccc2)c(=O)c2[nH]cnc21`, the binding response (% of control) was inconclusive: 139%.
For `CCC(=O)NC(=S)NNC(=O)COc1ccc(Br)cc1`, the binding response (% of control) was inactive: 89.7%.
`COC(=O)c1sccc1NC(=S)Nc1cc(C)ccc1OC` was tested, and the binding response (% of control) was inconclusive: 115%.
In the case of `Cc1c(Cl)c([N+](=O)[O-])nn1CC(=O)NC(C)C1CC2CCC1C2` (stereo unspecified), the binding response (% of control) is reported as inactive: 100%.
For `CCOc1ccccc1N1CCN(C(=O)COc2ccc3c(C)cc(=O)oc3c2)CC1`, the binding response (% of control) was inconclusive: 89.7%.
In the case of `CCN(CC)c1cc(Cl)c2nonc2c1N`, the binding response (% of control) is reported as inconclusive: 76.6%.
In the case of `COc1cc2ccc(=O)oc2c(CC=C(C)C)c1OC`, the binding response (% of control) is reported as inconclusive: 91.3%.
In the case of `CCN(CC)S(=O)(=O)c1ccc(Cl)c(NC(=O)COc2ccc(OC)cc2)c1`, the binding response (% of control) is reported as inconclusive: 104%.
In the case of `O=C(O)c1ccccc1C(=O)Nc1ccc(Oc2cccc(C(F)(F)F)c2)nc1`, the binding response (% of control) is reported as inconclusive: 97.6%.
For `Cc1ccc(S(=O)(=O)N(Cc2n[nH]c(=S)n2-c2ccccc2)c2ccccc2)cc1`, the binding response (% of control) was inconclusive: 102%.
In the case of `CC1(C)C2CCC1(C)C(OC(=O)C[n+]1ccccc1)C2` (stereo unspecified), the binding response (% of control) is reported as inconclusive: 82.7%.
With `CCOc1ncccc1C(=O)N=C1SCCN1C(=O)c1cccnc1OCC` the binding response (% of control) was inconclusive: 109%.
